One molecule from PMC10693564 can be followed below.

Amino acid sequences for entries named in this document (tags omitted). A change or cut given only in a name is not applied to a line headed by its entry. Chains listed by the source or under a name are the forms on record and can include a tag or linker.
fluorescent ISG15 (P05161, form named): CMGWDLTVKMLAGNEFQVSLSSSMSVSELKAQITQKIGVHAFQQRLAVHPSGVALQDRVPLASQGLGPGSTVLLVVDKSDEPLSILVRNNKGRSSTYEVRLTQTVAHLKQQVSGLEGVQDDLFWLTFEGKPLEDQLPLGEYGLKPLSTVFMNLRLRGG

Results are given in words; binding and its absence hold for the method and conditions named.

In this assay the target is fluorescent ISG15 (UniProt P05161). The assay is described as follows: fluorescence polarisation; both purified. A general note: Polarisation of emitted light reports the rotation of a fluorescent probe.

B1: NS1B AA mutant (W36A/Q37A) (protein, UniProt P03502 1-281)
chain: MADNMTTTQIEVGPGATNATINFEAGILECYERFSAARALDYPGQDRLHRLKRKLESRIKTHNKSEPENKRMSLEERKAIGVKMMKVLLFMDPSAGIEGFEPYCVKNPSTSKCPNYDWTDYPPTPGKYLDDIEEEPENVDHPIEVVLRDMNNKDARQKIKDEVNTQKEGKFRLTIKRDIRNVLSLRVLVNGTFLKHPNGDKSLSTLHRLNAYDQNGGLVAKLVATDDRTVEDEKDGHRILNSLFERFDEGHSKPIRAAETAVGVLSQFGQEHRLSPEEGDN
For B1, the binding entry was “no binding”.
